For this test, the target named is Glutathione S-transferase (GST)-tagged importin-β1 (UniProt Q14974). The test is described as follows: pull-down.

Amino acid sequences for entries named in this document (tags omitted).
UniProt Q14974: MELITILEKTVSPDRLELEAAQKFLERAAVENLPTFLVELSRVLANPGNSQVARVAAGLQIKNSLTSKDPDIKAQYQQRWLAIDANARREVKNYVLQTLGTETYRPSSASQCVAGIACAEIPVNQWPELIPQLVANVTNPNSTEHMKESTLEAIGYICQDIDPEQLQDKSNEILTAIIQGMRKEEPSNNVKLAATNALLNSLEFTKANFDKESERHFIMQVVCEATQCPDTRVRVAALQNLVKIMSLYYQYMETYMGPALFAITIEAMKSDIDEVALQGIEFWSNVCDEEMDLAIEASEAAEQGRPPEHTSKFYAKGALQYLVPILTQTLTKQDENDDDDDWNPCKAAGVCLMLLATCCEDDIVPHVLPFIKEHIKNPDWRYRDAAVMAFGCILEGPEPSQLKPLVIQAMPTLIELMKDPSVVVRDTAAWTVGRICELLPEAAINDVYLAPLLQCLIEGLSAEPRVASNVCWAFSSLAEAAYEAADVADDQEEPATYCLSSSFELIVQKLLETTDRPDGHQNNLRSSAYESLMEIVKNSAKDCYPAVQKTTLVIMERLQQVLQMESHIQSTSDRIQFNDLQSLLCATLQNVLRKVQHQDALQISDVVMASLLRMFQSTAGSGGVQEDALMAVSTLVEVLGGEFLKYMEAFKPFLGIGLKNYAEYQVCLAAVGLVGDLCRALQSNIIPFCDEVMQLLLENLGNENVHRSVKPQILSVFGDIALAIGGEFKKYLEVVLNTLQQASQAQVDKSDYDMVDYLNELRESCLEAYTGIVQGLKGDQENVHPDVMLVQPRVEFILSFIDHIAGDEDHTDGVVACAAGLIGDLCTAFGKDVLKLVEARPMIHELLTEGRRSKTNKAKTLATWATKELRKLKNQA

Results are given in words; binding and its absence hold for the method and conditions named. In cells and extracts the contact can be indirect. Some results given as binding are weak or reduced against the parent protein; the word gives no strength. Tags and fused reporters may be left off the sequences shown.

B1: mNeonGreen (mNG)-tagged Ect2 (328-388), non-mutant control (domain or fragment, UniProt Q9H8V3-4 328-388)
chain: TPELKKSVSMLSLNTPNSNRKRRRLKETLAQLSRETDVSPFPPRKRPSAEHSLSIGSLLDI
B1: the binding entry was “binds”.

B2: mNeonGreen:Ect2^3A (328-388) (domain or fragment, UniProt Q9H8V3-4 328-388)
chain: TPELKKSVSMLSLNTPNSNRAAARLKETLAQLSRETDVSPFPPRKRPSAEHSLSIGSLLDI
Take B2: the binding result is “binds”.
